Laboratory results from PubChem BioAssay AID504834 (National Center for Advancing Translational Sciences (NCATS), 2011).
Out of some 320,000 compounds screened, about 22,000 (6.9%) were called active. The inconclusive results got no clear call from the source; some entries with a clear call stand among them for comparison. Calls follow the shape of the dose curve; as a rule, active = well fitted inhibition curve with a large enough effect; inconclusive = small, poorly fitted or top-dose-only effect, or another doubt; inactive = no such curve, though single readings can be large or run the other way. Potencies beside an inconclusive call are fits to weak or partial responses and may not hold up.

Assay: Primary qHTS for delayed death inhibitors of the malarial parasite plastid, 96 hour incubation
Conditions: P. falciparum luciferase reporter growth; series mostly up to 28.7 µM; activity change, negative = inhibition: at the top concentration
How it was run: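 Parasite growth measured via integrated firefly luciferase reporter in P. falciparum. Infected erythrocytes at 2% hematocrit, 0.05% parasitemia final were treated 96 hours at 37 C under 5% CO2, and luminescence was read.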
% is scaled to controls: 0 for no effect and ±100 for the full control effect; potency is read from the fitted curve at half-maximal effect.

SMILES	activity change, negative = inhibition	Potency
CCc1ccccc1NC(=O)CNC(=O)CNC(=O)c1cccs1	inactive: 0.509%	
FC(F)(F)c1cc(N2CCNCC2)c2ccccc2n1	inactive: -16.4%	
O=C(NO)c1ccc(OC(F)F)cc1		inconclusive: 9.28 µM [inhibitor, single point]
O=C(c1ccc(Cn2cc([N+](=O)[O-])cn2)o1)N1CCCCCC1	inactive: 5.11%	
CCC(C)(C)NC(=O)C(c1ccc(OC)cc1)N(CC1CCCO1)C(=O)CCC(=O)Nc1cc(C)on1 (centres undefined)		inconclusive: 18.5 µM [inhibitor, single point]
COC(=O)c1ccc(C2=NOC(C)(c3nnc(Cc4ccccc4)o3)C2)cc1 (centres undefined)		inconclusive: 0.0657 µM [inhibitor, full curve, poor fit]
Nc1c(S(=O)(=O)c2ccccc2)nnn1-c1ccccc1		inconclusive: 20.8 µM [inhibitor, partial curve, poor fit]
Cc1cccc(C)c1NC(=O)C(c1ccc([N+](=O)[O-])cc1)N1CCCCC1 (centres undefined)		inconclusive: 14.7 µM [inhibitor, partial curve, poor fit]
[O-]/[N+](=C\c1ccco1)c1ccc(Cl)cc1		inconclusive: 1.65 µM [inhibitor, full curve]
COc1ccc2[nH]c(=O)c(CN(C(=O)c3cccnc3)c3ccccc3C)cc2c1	inactive: 1.38%	
CC(C)NC(=O)c1ccc(-c2ccc(Cl)c(C(F)(F)F)c2)o1		active: 3.29 µM
CCOC(=O)[C@H]1[C@H]2COc3ccc(Cl)cc3[C@@H]2N2C(=O)c3cc(F)ccc3NC(=O)[C@@]12C		inconclusive: 18.5 µM [inhibitor, partial curve, poor fit]
CC(C)(C)c1ccc(S(=O)(=O)N2CCN(CC(=O)NC(=O)NC3CCCCC3)CC2)cc1		active: 2.94 µM
COc1ccc(-c2[nH]ncc2CN2CCN(C3CCCCC3)C(=O)C2)cc1F		inconclusive: 18.5 µM [inhibitor, single point]
c1ccc(COC2CCCN(Cc3nc(-c4cnccn4)no3)C2)cc1 (centres undefined)		inconclusive: 18.5 µM [inhibitor, single point]
Cc1ccc(-c2nn(-c3ccccc3)cc2C=O)o1	inactive: 63.2%	
COC(=O)N/N=C/c1cccc(OC(=O)c2ccc3c(c2)OCO3)c1	inactive: 61.1%	
COc1cc(NC(=O)Cn2nc(C(F)(F)F)c(Br)c2C)cc([N+](=O)[O-])c1		inconclusive: 4.15 µM [inhibitor, partial curve, poor fit]
CCOC(=O)C1CCCN(C(=O)CSCc2ccccc2)C1 (centres undefined)		inconclusive: 16.5 µM [inhibitor, single point]
CCc1ccccc1N(CC(=O)NC1CCCC1)C(=O)CNC(=O)c1cccs1	inactive: 14%	
O=C(NCCCNC(=O)c1ccccn1)c1ccc(Br)cc1	inactive: 35.9%	
COc1cccc(NC(=O)Nc2cccn(Cc3ccc(C)cc3)c2=O)c1	inactive: 4.21%	

SMILES	activity change, negative = inhibition	Potency
Cc1cccc2c1NC(=O)C2=Nc1ccc(Cl)cc1		inconclusive: 3.7 µM [inhibitor, partial curve, poor fit]
Cc1ccc(NC(=O)C2CC(O)CN2C(=O)OCc2ccccc2)c(C)c1 (centres undefined)		inconclusive: 3.29 µM [inhibitor, full curve]
COCCn1c(-c2cccs2)csc1=Nc1cccnc1		inconclusive: 11.7 µM [inhibitor, single point]
CC1(c2ccc(Cl)cc2)NC(=O)N(CC(=O)N2CCN(S(=O)(=O)c3ccccc3)CC2)C1=O (centres undefined)		inconclusive: 10.4 µM [inhibitor, single point]
Cc1ccc(OC(=O)c2oc3ccc(F)cc3c2C)c(C)c1	inactive: 95.8%	
COc1cc(C(=O)Nc2cc(-c3cn4cccnc4n3)ccc2C)cc(OC)c1OC		inconclusive: 13.1 µM [inhibitor, single point]
Cc1oc2c(C)c3oc(=O)c(CCC(=O)N4C[C@H]5C[C@@H](C4)c4cccc(=O)n4C5)c(C)c3cc2c1C		active: 11.7 µM
CC1(NC(=O)C2CCN(C(=O)Nc3ccccc3)CC2)CCS(=O)(=O)C1 (centres undefined)	inactive: 49.8%	
CCCc1cc(=O)oc2cc(OCC(=O)NCc3ccccn3)ccc12		inconclusive: 18.5 µM [inhibitor, single point]
CCCc1cc(=O)[nH]c(SCCOc2ccc(OCC)cc2)n1		inconclusive: 18.5 µM [inhibitor, single point]
Cc1ccc(Cn2c(=O)c3c(nc4n3CCCN4Cc3ccccc3)n(C)c2=O)cc1	inactive: -25.5%	
CCc1cccc(CC)c1NC(=S)/C(=C(\[O-])c1ccc(Cl)s1)[n+]1ccccc1		inconclusive: 10.4 µM [inhibitor, single point]
COc1cc(C(=O)NCC(=O)NCCSc2ccc(Br)cc2)cc(OC)c1OC		inconclusive: 9.28 µM [inhibitor, partial curve, poor fit]
NNC(=S)Nc1cc(S(=O)(=O)N2CCOCC2)ccc1N1CCOCC1		inconclusive: 18.5 µM [inhibitor, single point]
Cc1ccccc1OCCSc1nnc(-c2cccnc2)n1N	inactive: 17.5%	
O=C(NCc1n[nH]c(=S)n1-c1ccc(Br)cc1)c1ccc(S(=O)(=O)N2CCCC2)cc1		inconclusive: 0.0041 µM [inhibitor, full curve, poor fit]
O=C(CN1C(=O)CSc2ccc(S(=O)(=O)N3CCOCC3)cc21)NCCCN1CCOCC1		inconclusive: 3.7 µM [inhibitor, full curve, poor fit]
CCOC(=O)C1(CC2CC2)CCN(Cc2cnc(N(C)C)s2)CC1	inactive: -26.7%	
Cc1ccc(C)c(COC(=O)c2cc(S(=O)(=O)N3CCCCC3)ccc2N2CCOCC2)c1		inconclusive: 10.4 µM [inhibitor, partial curve]
CC(=O)N1N=C(c2ccccc2)CC1c1cn(Cc2ccccc2)c2ccccc12 (centres undefined)		inconclusive: 13.1 µM [inhibitor, partial curve, poor fit]
CCOC(=O)c1oc2ccc(CNCCO)c(Cl)c2c1C		inconclusive: 18.5 µM [inhibitor, single point]
O=C(c1cccnc1)N1CCN(c2c(Cl)cccc2[N+](=O)[O-])CC1		inconclusive: 18.5 µM [inhibitor, single point]

Given as a markdown table: 13 of the compounds above

| SMILES | activity change, negative = inhibition | Potency |
| --- | --- | --- |
| CCc1ccccc1NC(=O)CNC(=O)CNC(=O)c1cccs1 | inactive: 0.509% |  |
| [O-]/[N+](=C\c1ccco1)c1ccc(Cl)cc1 |  | inconclusive: 1.65 µM [inhibitor, full curve] |
| CC(C)NC(=O)c1ccc(-c2ccc(Cl)c(C(F)(F)F)c2)o1 |  | active: 3.29 µM |
| CCOC(=O)[C@H]1[C@H]2COc3ccc(Cl)cc3[C@@H]2N2C(=O)c3cc(F)ccc3NC(=O)[C@@]12C |  | inconclusive: 18.5 µM [inhibitor, partial curve, poor fit] |
| c1ccc(COC2CCCN(Cc3nc(-c4cnccn4)no3)C2)cc1 (centres undefined) |  | inconclusive: 18.5 µM [inhibitor, single point] |
| COc1cc(NC(=O)Cn2nc(C(F)(F)F)c(Br)c2C)cc([N+](=O)[O-])c1 |  | inconclusive: 4.15 µM [inhibitor, partial curve, poor fit] |
| Cc1ccc(OC(=O)c2oc3ccc(F)cc3c2C)c(C)c1 | inactive: 95.8% |  |
| CC1(NC(=O)C2CCN(C(=O)Nc3ccccc3)CC2)CCS(=O)(=O)C1 (centres undefined) | inactive: 49.8% |  |
| O=C(NCc1n[nH]c(=S)n1-c1ccc(Br)cc1)c1ccc(S(=O)(=O)N2CCCC2)cc1 |  | inconclusive: 0.0041 µM [inhibitor, full curve, poor fit] |
| O=C(CN1C(=O)CSc2ccc(S(=O)(=O)N3CCOCC3)cc21)NCCCN1CCOCC1 |  | inconclusive: 3.7 µM [inhibitor, full curve, poor fit] |
| CCOC(=O)C1(CC2CC2)CCN(Cc2cnc(N(C)C)s2)CC1 | inactive: -26.7% |  |
| Cc1ccc(C)c(COC(=O)c2cc(S(=O)(=O)N3CCCCC3)ccc2N2CCOCC2)c1 |  | inconclusive: 10.4 µM [inhibitor, partial curve] |
| O=C(c1cccnc1)N1CCN(c2c(Cl)cccc2[N+](=O)[O-])CC1 |  | inconclusive: 18.5 µM [inhibitor, single point] |
